This note sets out measurements from PubChem BioAssay AID1347423 (Functional Genomics Laboratory (NCATS/FGL), 2020).

The campaign covered roughly 52,000 sequences. About 210 (0.4%) were called active.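 The calls were made as follows: active = gene whose silencing raises cell survival under the drug, median off-target-corrected z-score across its silencing RNAs 2 or more; inactive = the rest.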 Some of the results follow.

A short description of this test: Resistance to Poly (ADP-Ribose) Polymerase inhibitor: Gene Identification via Genome-wide siRNA Screen. The settings on record: mouse BRCA2 R2336H ES cells, olaparib, CellTiter-Glo viability; active compounds read high. A digest of the protocol: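 Genome-wide siRNA screen (3 siRNAs/gene, 20 nM) in mouse ES cells carrying hypomorphic BRCA2 R2336H; olaparib 500 nM added 48 h post-transfection, CellTiter-Glo viability 72 h later. Normalized to plate-median negative control; MAD z-scores, gene median, seed-adjusted.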
For orientation: In ATP-based viability assays light output follows the ATP content of the culture.
For the sequence GGUACUGAAUAGGACAAAGTT against Stra8, the z-score is inactive: -0.703.
Under GCGGCUCCAAAAUUGUGCUTT against Ipo13 stands inactive: -0.703; under GGAAUACAGUCUUUAUAUGTT against Slco4c1, inactive: 0.443; under GGUGCUGAGCAUGGUGUUATT against Spag4, inactive: -0.904.
As to GCUAAGUGUAGAAAACAGGTT against Shox2, the z-score was inactive: 0.164.
Under GGCAUAUCAACUUUCUCGATT against p stands inactive: 1.09; under “GGACUCCACUUUUGAAAACTT against 1810020G14Rik”, inactive: 0.707; under GCCUCUUGCCUGAUUACCUTT against Mja1l, inactive: 0.0856.
Under UCGCAUGCUCAUUGGCAUGTT against MGC62475 stands inactive: 0.239; under CCCAUGGGCAGAUGAAAGCTT against Olfr1441, inactive: 0.594; under CGAGAACAGAGGUUUUUAATT against Mxi1, inactive: -0.947.
With “CCAAAAUGAACAUCAACUCTT against A030013D21”, the z-score is inactive: 0.832.
Under “GGCAUCCGUGUGUCUCUAGTT against 5730457F11Rik” stands active: -2.13; under GGUUGUGAAACGAUGCCCUTT against Trp63, inactive: 0.559.
Take GGCUCGGAAAGAAAAGAACTT against Sh2bp1: the z-score is inactive: -1.95.
For the sequence GGCAGUGAAGAGAAGAAGUTT against Trub2, the z-score is inactive: -1.55.
Under GGCUUUUACCGCCAAGACGTT against Snx11 stands inactive: 0.931; under “GGAGAGAGAGAAGAAGGAUTT against 2610510D14Rik”, inactive: -1.13; under GGCGGAUGAACAAAGUUGGTT against Paf53, inactive: -1.29.
Under GCGGGAGUACUACGUCAAUTT against Reps2 stands inactive: -1.12; under GGAGAUUAUCAGGGAAGAGTT against Pvrl3, inactive: 0.238; under “GGGCUUUGUUUCCAAGUUGTT against D730046L02Rik”, inactive: -0.678.
With GGACAAGCUGAAGACGCACTT against Zfp64, the z-score is inactive: -1.13.
Under GGACAGCUACAUAAGCUUUTT against Il17d stands inactive: 0.792.
Turning to GGUUCUUGUUCAUUCUCUUTT against Slc4a4, the z-score is inactive: 1.88.
For the sequence GCAACUGGCAGUCGCCUAUTT against BC027344, the z-score was inactive: -0.84.
As for “GGUCUUCGAAACACAGCUGTT against 4933417E01Rik”, the z-score is inactive: 0.0819.
Regarding GGACUACCUAUGGUUAAAATT against Nup93, the z-score is inactive: 0.0164.
Under CCCAUAUCUUAAUCAAAAGTT against Akr1e1 stands inactive: -0.489.
